Measured values reported in patent US7125986B2, “Penicillanic acid derivative compounds and methods of making” (Southern Methodist University Foundation for Research, priority 1997, dated 2006).
Counter-ions that a name gives are not always drawn. Some results were stated once for a whole list of compounds, not compound by compound.

The chains behind the UniProt entries cited, without tags or fusion partners. Residues count along the entry.
UniProt P62593, 24-286 limits assumed: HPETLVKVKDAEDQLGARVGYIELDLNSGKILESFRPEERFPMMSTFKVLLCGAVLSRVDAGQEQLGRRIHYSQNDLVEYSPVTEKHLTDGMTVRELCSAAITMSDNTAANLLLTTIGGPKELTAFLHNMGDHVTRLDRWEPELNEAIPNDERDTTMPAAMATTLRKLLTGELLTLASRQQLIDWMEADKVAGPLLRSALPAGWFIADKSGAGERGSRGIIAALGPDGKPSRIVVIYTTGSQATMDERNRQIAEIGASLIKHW

Target: TEM-1 β-lactamase (Escherichia coli, UniProt P62593)
Experiment: β-lactamase inhibition, nitrocefin hydrolysis (TEM-1)
Assay type: biochemical
Conditions: factor relative to compound 9
Description: The IC50 value of each compound was determined as follows. Following a 10 minute incubation of a dilute solution of enzyme (2.56 nM) and inhibitor (<0.64 μM), a 50 μL aliquot of the incubation mixture was further diluted into 1 mL nitrocefin (a substrate) solution, and the rate of hydrolysis was measured during a 1 minute period by monitoring the absorbance of nitrocefin as a function of time.

## C[C@]1(COC(=O)Cc2ccccc2)[C@H](C(=O)O)N2C(=O)/C(=C/C(=O)O)[C@H]2S1(=O)=O [Compound 8d, Disodium salt of 2β-(phenylacetoxymethyl)-6-[(Z)-carboxymethylene]-penicillinate 1,1-dioxide]
  β-lactamase inhibiting activity greater than compound 9 by a factor, TEM-1: ≥ 10
